Among the data in publication PMC10082800 are binding values, retold here.

Protein sequences, listed by entry. Tags and fused reporters are not part of them.
UniProt P51617: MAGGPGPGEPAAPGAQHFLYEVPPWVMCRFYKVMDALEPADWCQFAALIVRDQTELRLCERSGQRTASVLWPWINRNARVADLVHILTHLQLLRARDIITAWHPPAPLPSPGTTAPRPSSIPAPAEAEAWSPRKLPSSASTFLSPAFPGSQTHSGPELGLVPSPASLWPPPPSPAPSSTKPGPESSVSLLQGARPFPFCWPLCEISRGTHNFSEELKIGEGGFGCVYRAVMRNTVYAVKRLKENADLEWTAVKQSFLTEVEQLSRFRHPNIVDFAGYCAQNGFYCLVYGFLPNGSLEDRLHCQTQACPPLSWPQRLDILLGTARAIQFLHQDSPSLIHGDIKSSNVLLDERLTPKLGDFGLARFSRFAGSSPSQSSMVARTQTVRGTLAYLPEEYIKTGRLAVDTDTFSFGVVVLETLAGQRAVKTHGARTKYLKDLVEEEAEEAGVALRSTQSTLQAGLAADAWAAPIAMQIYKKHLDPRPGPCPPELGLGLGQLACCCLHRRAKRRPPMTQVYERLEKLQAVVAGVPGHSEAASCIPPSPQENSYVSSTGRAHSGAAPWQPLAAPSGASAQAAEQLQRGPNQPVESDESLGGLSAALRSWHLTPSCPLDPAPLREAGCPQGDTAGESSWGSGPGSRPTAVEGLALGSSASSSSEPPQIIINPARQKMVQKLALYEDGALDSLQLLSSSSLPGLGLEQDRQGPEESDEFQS

Results are given in words; binding and its absence hold for the method and conditions named. In cells and extracts the contact can be indirect. Some binding calls cover weakened binding; strength is not graded here. Where a sequence is shown, tags or fusion partners need not be part of it.

One assay concerns the target T1, Myc-PRDX1 (human) (UniProt Q06830).
T1 sequence: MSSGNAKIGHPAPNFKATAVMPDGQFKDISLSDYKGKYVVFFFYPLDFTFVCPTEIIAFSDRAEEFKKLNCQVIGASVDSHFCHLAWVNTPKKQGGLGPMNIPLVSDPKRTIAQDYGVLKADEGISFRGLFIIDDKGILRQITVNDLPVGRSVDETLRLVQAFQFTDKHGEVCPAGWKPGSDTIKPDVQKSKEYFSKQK
The assay is described as follows: co-IP; tagged proteins transiently co-transfected into 293T cells; for HECTD3 constructs IP with anti-Myc antibody; Western blotting.

The next assay concerns the target T2, GST-PRDX1 fusion protein (UniProt Q06830).
T2 sequence: T1 sequence
The assay is described as follows: pull-down; purified GST-PRDX1 incubated with total protein of 293T cells overexpressing Flag-IRAK1 at 4 °C overnight, glutathione-sepharose beads 2 h, Western blotting; only the target purified.

Take Flag-IRAK1 (from UniProt P51617 1-712): the binding entry with Myc-PRDX1 (human) and with GST-PRDX1 fusion protein was “binds” in each case.
